## Screening data, single-dose tests

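Growth of Mycobacterium tuberculosis over 4 days (cholesterol / DPPC medium with tyloxapol); the read-out is not stated. Tested at 500 µM. Direction is inferred from retests: higher values go with more growth inhibition. Size under these conditions: about 18,000 compounds, about 900 of them at 50% or above in at least one test.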

Results are given as percent effect.
The record does not define 0% and 100%; most values in the screen are far below 50% and negative numbers occur (in some assays of this library far below -100).
The compounds are a random part of those screened.

{"compound": "CN(CC1COCCO1)C(=O)c1ccc(CO)cc1", "stereo": "stereo not drawn", "effect": 1.864}
{"compound": "CCOC(C(=O)N(C)CC(N)=O)c1ccccc1", "stereo": "stereo not drawn", "effect": 8.826}
{"compound": "CC1CCN(CCNC(=O)Nc2ncnn2C)CC1", "effect": -19.22}
{"compound": "CN(C)C(=O)CN(CC(F)(F)F)C(=O)C1CCCCC1", "effect": -10.08}
{"compound": "COCCNC(=O)NCCN1CCc2sccc2C1", "effect": -1.564}
{"compound": "O=C(NCc1cccc(Cn2cncn2)c1)C1CC1", "effect": 6.925}
{"compound": "CC(C)CCNC(=O)CCn1cc(Br)ccc1=O", "effect": 41.73}
{"compound": "Cc1cnn(CC(C)NCCS(C)(=O)=O)c1", "stereo": "stereo not drawn", "effect": -2.043}
{"compound": "CCCNC(=O)c1cccnc1SCC", "effect": 39.27}
{"compound": "CCC(CC)C(CNC(=O)c1ccc(O)nc1)N(C)C", "stereo": "stereo not drawn", "effect": -5.349}
{"compound": "CC(C)(C)OCCCN", "effect": -3.837}
{"compound": "CN(C(=O)c1ccc(S(C)(=O)=O)cc1)c1ccccc1", "effect": -7.156}
{"compound": "OCCc1cnn(-c2cccc(-n3cnnc3)c2)c1", "effect": 36.88}
{"compound": "CC1CCN(C(=O)c2occc2Br)CCS1(=O)=O", "stereo": "stereo not drawn", "effect": -9.536}
{"compound": "CC(C)(O)CNCc1ccccc1", "effect": -15.32}
{"compound": "Cc1[nH]c(=O)c(C#N)c(C)c1CCC(=O)NC(C)C", "effect": 6.037}
{"compound": "NCC(=O)Nc1ccc(-n2cncn2)cc1", "effect": 13.48}
{"compound": "NC1CS(=O)(=O)Cc2ccccc21", "stereo": "stereo not drawn", "effect": -10.48}
{"compound": "CCCOc1ccc(CNC(=O)c2cc[nH]n2)cn1", "effect": 53.37}
{"compound": "NCCc1nnc2ccccn12", "effect": -0.5828}
{"compound": "CCN(CC)C(=O)c1cccc(C(=O)N(CC)CC)c1", "effect": 7.145}
{"compound": "CC1CN(C(=O)c2cccc(-n3cnnn3)c2)CCO1", "stereo": "stereo not drawn", "effect": -15.57}
{"compound": "Cc1cnn(CCNCc2cccc3c2OCCO3)c1", "effect": 3.029}
{"compound": "CNC(=O)C(CC(C)C)NC(=O)c1ccc(Br)c(O)c1", "stereo": "stereo not drawn", "effect": 2.886}
{"compound": "CCc1nnc(CNC(=O)c2nnc(C(C)C)s2)o1", "effect": 14.71}
{"compound": "CCCS(=O)(=O)NCC(O)CN1CCCC1", "stereo": "stereo not drawn", "effect": -7.797}
{"compound": "CN(C)S(=O)(=O)c1ccc(C(=O)N2CCCC2)cc1", "effect": -6.155}
{"compound": "O=C(c1cc(O)cc(O)c1)N1CCc2cnccc21", "effect": 11.05}
{"compound": "CCN(CC1CCCO1)C(=O)CCCc1cn[nH]c1", "stereo": "stereo not drawn", "effect": 2.977}
{"compound": "CC(C)n1nnnc1SCC(O)C(F)(F)F", "stereo": "stereo not drawn", "effect": 30.82}
{"compound": "CSc1ccc(CNCC2(C(N)=O)CCOCC2)cc1", "effect": 11.57}
{"compound": "NS(=O)(=O)CC1CCCN1CCSc1ccccc1", "stereo": "stereo not drawn", "effect": 28.03}
{"compound": "c1csc(N2CCN(c3ccc4nnnn4n3)CC2)n1", "effect": -4.801}
{"compound": "Nc1nccnc1C(=O)N(CC1CC1)c1ccccc1", "effect": 0.9896}

Once more, the final 3:

* NS(=O)(=O)CC1CCCN1CCSc1ccccc1 (stereo not drawn) | 28.03%
* c1csc(N2CCN(c3ccc4nnnn4n3)CC2)n1 | -4.801%
* Nc1nccnc1C(=O)N(CC1CC1)c1ccccc1 | 0.9896%

From ChEMBL document CHEMBL3988442, “University of Dundee, Small-Polar-MMV Screening Library” (2021).